Reference: PubChem BioAssay AID330 (DTP/NCI, 2004)
The list does not hold the whole screen: it gathers tests that were run many times, whatever their T/C, doses with no T/C, and many T/C values between a quarter and a half above the control. Other doses and runs of a compound stand elsewhere. T/C gives the treated animals as a percentage of the vehicle group. Some entries give survivors of the animals treated and no T/C: the source holds a T/C of zero for them, seemingly a mark for toxic or unscored doses. Some doses without a T/C left all or most animals alive at the check, yet need not have been tolerated: the source hardly ever lists a survival T/C far under the control, and the zero likely stands for such cases as well. Counts of survivors are from the toxicity check (mostly the fifth day) where no day follows; animals may have died later. Schedules are NCI's codes, taken here to give the interval after Q, in days (D) or hours (H), and the number of doses after X. Some entries hold several experiments; the values are given in rising order. Some schedule codes hold Z or #, which are not explained here. Where survival is the endpoint, the PubChem record calls one and a half times the control and up active, and a quarter to a half above the control has no call in these data; cut-offs in other NCI protocols can differ.

Test system: P388 leukemia ip, CD2F1 mice, survival T/C
Test: NCI In Vivo Anticancer Drug Screen. Data for tumor model P388 Leukemia (intraperitoneal) in CD2F1 (CDF1) mice
Details: T/C endpoint: median survival time, higher T/C = longer survival
[1] = dose: 100.0 mg/kg/injection, schedule: Q01DX009 (ip), vehicle: saline
[2] = dose: 200.0 mg/kg/injection, schedule: Q01DX009 (ip), vehicle: saline
[3] = dose: 200.0 mg/kg/injection, schedule: Q01DX009 (ip), vehicle: Klucel (hydroxypropylcellulose) (HPC)
[4] = dose: 200.0 mg/kg/injection, schedule: Q01DX009 (ip), vehicle: saline with Tween-80
[5] = dose: 400.0 mg/kg/injection, schedule: Q01DX001 (ip), vehicle: saline with Tween-80
[6] = dose: 120.0 mg/kg/injection, schedule: Q01DX005 (ip), vehicle: saline with Tween-80
[7] = dose: 240.0 mg/kg/injection, schedule: Q01DX005 (ip), vehicle: saline with Tween-80
[8] = dose: 50.0 mg/kg/injection, schedule: Q01DX005 (ip), vehicle: Klucel (hydroxypropylcellulose) (HPC)
[9] = dose: 100.0 mg/kg/injection, schedule: Q01DX005 (ip), vehicle: Klucel (hydroxypropylcellulose) (HPC)
[10] = dose: 200.0 mg/kg/injection, schedule: Q01DX005 (ip), vehicle: Klucel (hydroxypropylcellulose) (HPC)
[11] = dose: 100.0 mg/kg/injection, schedule: Q01DX009 (ip), vehicle: saline with Tween-80

In the case of `CCN(CCNc1ccc(C)c2sc3ccccc3c(=O)c12)CC(C)(C)O`, the T/C (dose: 100.0 mg/kg/injection, schedule: Q04DX003 (ip), vehicle: saline) is reported as 131 % of control, the T/C (dose: 200.0 mg/kg/injection, schedule: Q04DX003 (ip), vehicle: saline) is reported as 140 % of control and the survivor count (dose: 400.0 mg/kg/injection, schedule: Q04DX003 (ip), vehicle: saline) is reported as 5 of 6.
For `c1ccc(N2CCN(c3ccccc3)C2=C2N(c3ccccc3)CCN2c2ccccc2)cc1`, the survivor count (dose: 50.0 mg/kg/injection, schedule: Q01DX005 (ip), vehicle: saline) was 1 of 3 and 2 of 6, the survivor count (dose: 100.0 mg/kg/injection, schedule: Q01DX005 (ip), vehicle: saline) was 0 of 6 and the survivor count (dose: 200.0 mg/kg/injection, schedule: Q01DX005 (ip), vehicle: saline) was 0 of 6.
In the case of `CCCOc1ccc2c(NCCCCCCNc3c4ccccc4nc4cc(OCCC)ccc34)c3ccccc3nc2c1`, the T/C (dose: 0.31 mg/kg/injection, schedule: Q## X009 (ip), vehicle: lactic acid) is reported as 127 % of control, the T/C (dose: 1.25 mg/kg/injection, schedule: Q## X009 (ip), vehicle: lactic acid) is reported as 137 % of control and the survivor count (dose: 10.0 mg/kg/injection, schedule: Q## X009 (ip), vehicle: lactic acid) is reported as 3 of 6. The survivor count (dose: 20.0 mg/kg/injection, schedule: Q## X009 (ip), vehicle: lactic acid) was 0 of 6.
`O=C(O)c1c[nH]c2cc(OCc3ccc(Cl)c(Cl)c3)ccc2c1=O` was tested, and the survivor count [1] was 6 of 6 and the survivor count [2] was 6 of 6.
In the case of `C(CCC1CO1)CC1CO1` (centres undefined), the survivor count (dose: 200.0 mg/kg/injection, schedule: Q04DX002 (ip), vehicle: Klucel (hydroxypropylcellulose) (HPC)) is reported as 6 of 6 and the survivor count (dose: 400.0 mg/kg/injection, schedule: Q04DX002 (ip), vehicle: Klucel (hydroxypropylcellulose) (HPC)) is reported as 6 of 6.
In the case of `CC1(C)CC2(OC2c2ccccc2)C(=O)c2ccccc21` (centres undefined), the survivor count [3] is reported as 6 of 6.
For `CCS/C(C#N)=C(/Br)c1ccc(OC)cc1`, the survivor count [4] was 6 of 6.
With `O=C1c2ccccc2C(=O)c2c(NCCN3CCNCC3)ccc(NCCN3CCNCC3)c21` the T/C (dose: 25.0 mg/kg/injection, schedule: Q01DX009 (ip), vehicle: water) was 134 % of control, the T/C (dose: 32.0 mg/kg/injection, schedule: Q01DX009 (ip), vehicle: acid diluted with saline) was 126 % of control and the survivor count (dose: 64.0 mg/kg/injection, schedule: Q01DX009 (ip), vehicle: acid diluted with saline) was 3 of 8. For the same compound, the survivor count (dose: 100.0 mg/kg/injection, schedule: Q01DX009 (ip), vehicle: water) was 0 of 6, the survivor count (dose: 200.0 mg/kg/injection, schedule: Q01DX009 (ip), vehicle: water) was 0 of 6 and the survivor count (dose: 400.0 mg/kg/injection, schedule: Q01DX009 (ip), vehicle: water) was 0 of 6.
In the case of `C=C1C(=O)O[C@@H]2[C@H]1CC[C@H](C)[C@]1(O)CCC(=O)[C@@]21C`, the T/C (dose: 100.0 mg/kg/injection, schedule: Q01DX009 (ip), vehicle: Klucel (hydroxypropylcellulose) (HPC)) is reported as 140 % of control.
`COc1c(OC)c2oc(=O)c3cc4c(c5oc(=O)c(c1OC)c2c53)OCO4` was tested, and the survivor count (dose: 14.0 mg/kg/injection, schedule: Q01DX005 (ip), vehicle: other) was 5 of 6.
With `CC(=O)OC1CCN(C)CC1CCl` (centres undefined) the survivor count [1] was 6 of 6 and the survivor count [2] was 2 of 6.
In the case of `O=C(O)CCC(=O)N(CCP(c1ccccc1)c1ccccc1)CCP(c1ccccc1)c1ccccc1`, the survivor count [3] is reported as 1 of 6.
With `COCc1ccc(C(N)C(=O)O)cc1` (centres undefined) the survivor count [5] was 2 of 6.
With `CC(=NC(C)(C)C)Nc1ccc(Cl)cc1` the survivor count [4] was 3 of 6.
`O=C(Cn1nnc(N2CCCCC2)n1)N/N=C/c1ccccc1O` was tested, and the survivor count (dose: 60.0 mg/kg/injection, schedule: Q01DX005 (ip), vehicle: Klucel (hydroxypropylcellulose) (HPC)) was 6 of 6 and the survivor count (dose: 120.0 mg/kg/injection, schedule: Q01DX005 (ip), vehicle: Klucel (hydroxypropylcellulose) (HPC)) was 6 of 6.
In the case of `COc1cc2c(cc1O)CC1c3c(cc(OC)c(O)c3C2)CCN1C` (centres undefined), the survivor count (dose: 100.0 mg/kg/injection, schedule: Q01DX001 (ip), vehicle: saline with Tween-80) is reported as 2 of 6, the survivor count (dose: 200.0 mg/kg/injection, schedule: Q01DX001 (ip), vehicle: saline with Tween-80) is reported as 0 of 6 and 3 of 6 and the survivor count [5] is reported as 0 of 6.
In the case of `Cc1ccc2c(c1)nc(C)c(=O)n2CC1CCCN2CCCC[C@H]12` (some centres undefined), the survivor count [6] is reported as 3 of 6 and the survivor count [7] is reported as 0 of 6.
With `O=C(O)C(F)(F)F.O=C(O)C(F)(F)F.O=C(O)C(F)(F)F.O=C(O)C(F)(F)F.[Rh].[Rh]` the survivor count (dose: 12.5 mg/kg/injection, schedule: Q01DX009 (ip), vehicle: saline) was 6 of 6 and the survivor count (dose: 200.0 mg/kg/injection, schedule: Q01DX009 (ip), vehicle: suspension in saline) was 3 of 6.
In the case of `O=C(O)/C(Cl)=C(Cl)\C=N\c1ncn[nH]1`, the survivor count [8] is reported as 1 of 5, the survivor count [9] is reported as 0 of 5 and the survivor count [10] is reported as 0 of 5.
`CN(C)c1ccc2c(SCC(=O)OCC(=O)[C@@]3(O)CC[C@H]4[C@@H]5CCC6=CC(=O)C=C[C@]6(C)[C@H]5C(=O)C[C@@]43C)c3ccc(N(C)C)cc3nc2c1` was tested, and the T/C [8] was 125 and 126 % of control, the T/C [9] was 126 and 135 % of control and the T/C [10] was 145 % of control. The survivor count [10] was 3 of 6.
`CC(C)C1C(=O)NC(c2ccc(N)cc2)c2ccccc21` (centres undefined) was tested, and the survivor count [1] was 6 of 6.
For `COc1ccc(C(=O)C(Br)C(Br)C(=O)O)cc1` (centres undefined), the survivor count [11] was 2 of 6 and the survivor count [4] was 0 of 6.
With `COc1ccc(NC(=S)Nc2ccc(S(=O)(=O)N3CCCCC3)cc2)cc1` the survivor count (dose: 50.0 mg/kg/injection, schedule: Q01DX009 (ip), vehicle: Klucel (hydroxypropylcellulose) (HPC)) was 6 of 6 and the survivor count [3] was 3 of 6.
For `Cc1cc(Cl)ccc1N=C(N)N`, the survivor count [11] was 3 of 5 and the survivor count [4] was 0 of 6.
`Nc1[nH]c(=O)ncc1-c1ccc(Cl)cc1` was tested, and the survivor count [7] was 1 of 6.
In the case of `O=C(O)CC1OCC=C2C[N+]3([O-])CCC45c6ccccc6NC4C1C2CC53` (centres undefined), the survivor count [6] is reported as 0 of 6 and the survivor count [7] is reported as 0 of 6.
With `CS1=C2C(=O)CC(C)(C)CC2=Nc2ccccc21` (centres undefined) the survivor count (dose: 100.0 mg/kg/injection, schedule: Q01DX005 (ip), vehicle: saline with Tween-80) was 0 of 6 and the survivor count (dose: 200.0 mg/kg/injection, schedule: Q01DX005 (ip), vehicle: saline with Tween-80) was 0 of 6.
For `CCCCCCCCCCCCCCCC[N+]1([O-])CCCCC1`, the survivor count [1] was 4 of 6 and the survivor count [2] was 0 of 6.
